Assay results reported in the supplement of paper PMC12067093, “Discovery and optimisation of a covalent ligand for TRIM25 and its application to targeted protein ubiquitination” (Chemical Science, 2025).
The list shows a part of the results.

Sequences of proteins named here, by UniProt entry; tags and fusion partners are left off. A change or cut given only in a name is not applied to a line headed by its entry.
UniProt Q9BX69: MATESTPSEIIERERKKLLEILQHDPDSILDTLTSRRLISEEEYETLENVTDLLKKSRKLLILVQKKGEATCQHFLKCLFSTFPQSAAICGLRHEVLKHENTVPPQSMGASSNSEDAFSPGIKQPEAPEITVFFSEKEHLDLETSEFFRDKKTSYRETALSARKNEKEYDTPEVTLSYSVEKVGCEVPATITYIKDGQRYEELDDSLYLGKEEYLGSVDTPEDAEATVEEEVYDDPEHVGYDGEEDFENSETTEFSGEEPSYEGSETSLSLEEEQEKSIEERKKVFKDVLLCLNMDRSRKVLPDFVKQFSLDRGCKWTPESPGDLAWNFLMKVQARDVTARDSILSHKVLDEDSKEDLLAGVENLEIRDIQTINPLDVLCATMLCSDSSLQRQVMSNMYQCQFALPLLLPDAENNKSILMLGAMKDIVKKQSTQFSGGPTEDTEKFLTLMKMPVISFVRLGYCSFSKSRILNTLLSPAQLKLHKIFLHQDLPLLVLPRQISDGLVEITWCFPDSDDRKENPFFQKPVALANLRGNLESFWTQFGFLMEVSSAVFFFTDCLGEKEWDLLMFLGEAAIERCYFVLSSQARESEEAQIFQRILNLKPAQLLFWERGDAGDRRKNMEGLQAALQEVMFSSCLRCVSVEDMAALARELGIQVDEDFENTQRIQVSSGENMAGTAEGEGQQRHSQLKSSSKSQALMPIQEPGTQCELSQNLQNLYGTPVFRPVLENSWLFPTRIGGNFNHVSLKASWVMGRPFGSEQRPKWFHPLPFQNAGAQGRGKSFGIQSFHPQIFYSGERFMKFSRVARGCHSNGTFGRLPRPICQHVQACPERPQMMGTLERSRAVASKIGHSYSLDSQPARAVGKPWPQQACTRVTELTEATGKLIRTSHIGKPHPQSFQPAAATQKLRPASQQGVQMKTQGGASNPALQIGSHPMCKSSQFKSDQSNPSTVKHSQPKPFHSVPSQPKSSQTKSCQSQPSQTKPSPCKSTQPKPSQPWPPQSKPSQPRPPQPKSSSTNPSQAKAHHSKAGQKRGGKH
UniProt Q92851: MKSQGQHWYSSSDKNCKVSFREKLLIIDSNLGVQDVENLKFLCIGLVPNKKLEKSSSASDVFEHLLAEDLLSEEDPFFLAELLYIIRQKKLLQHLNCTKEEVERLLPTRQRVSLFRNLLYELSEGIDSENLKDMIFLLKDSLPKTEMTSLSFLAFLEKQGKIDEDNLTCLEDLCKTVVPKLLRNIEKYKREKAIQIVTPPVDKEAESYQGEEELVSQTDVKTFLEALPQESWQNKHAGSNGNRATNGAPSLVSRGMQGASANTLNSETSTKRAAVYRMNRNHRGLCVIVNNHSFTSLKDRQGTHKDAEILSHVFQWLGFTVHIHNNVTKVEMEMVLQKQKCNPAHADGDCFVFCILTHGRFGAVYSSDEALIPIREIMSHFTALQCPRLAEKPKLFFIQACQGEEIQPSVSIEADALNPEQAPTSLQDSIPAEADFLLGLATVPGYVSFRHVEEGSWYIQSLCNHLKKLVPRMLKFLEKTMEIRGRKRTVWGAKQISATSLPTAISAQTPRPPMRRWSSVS
UniProt Q9Y6W3: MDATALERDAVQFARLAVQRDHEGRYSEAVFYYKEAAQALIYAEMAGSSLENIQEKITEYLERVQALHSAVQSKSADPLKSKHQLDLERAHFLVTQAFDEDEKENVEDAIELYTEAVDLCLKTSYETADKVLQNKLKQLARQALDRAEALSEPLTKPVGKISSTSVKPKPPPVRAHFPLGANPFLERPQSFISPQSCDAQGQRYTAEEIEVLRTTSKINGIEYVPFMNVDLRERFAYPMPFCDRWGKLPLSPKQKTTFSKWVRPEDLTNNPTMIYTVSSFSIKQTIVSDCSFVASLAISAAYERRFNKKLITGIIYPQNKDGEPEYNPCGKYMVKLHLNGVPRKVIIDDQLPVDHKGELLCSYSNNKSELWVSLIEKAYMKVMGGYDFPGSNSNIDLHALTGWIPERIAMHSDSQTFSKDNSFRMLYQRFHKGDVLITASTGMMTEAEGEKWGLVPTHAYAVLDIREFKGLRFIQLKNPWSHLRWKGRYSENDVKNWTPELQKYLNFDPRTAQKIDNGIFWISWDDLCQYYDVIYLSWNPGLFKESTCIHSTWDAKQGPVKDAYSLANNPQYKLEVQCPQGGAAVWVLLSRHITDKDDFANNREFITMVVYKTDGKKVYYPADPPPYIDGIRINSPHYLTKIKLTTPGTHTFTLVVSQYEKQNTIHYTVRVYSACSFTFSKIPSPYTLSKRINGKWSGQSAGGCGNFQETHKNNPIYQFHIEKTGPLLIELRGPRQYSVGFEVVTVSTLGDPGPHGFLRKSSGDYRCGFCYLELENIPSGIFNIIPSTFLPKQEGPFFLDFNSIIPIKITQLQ
UniProt P17655: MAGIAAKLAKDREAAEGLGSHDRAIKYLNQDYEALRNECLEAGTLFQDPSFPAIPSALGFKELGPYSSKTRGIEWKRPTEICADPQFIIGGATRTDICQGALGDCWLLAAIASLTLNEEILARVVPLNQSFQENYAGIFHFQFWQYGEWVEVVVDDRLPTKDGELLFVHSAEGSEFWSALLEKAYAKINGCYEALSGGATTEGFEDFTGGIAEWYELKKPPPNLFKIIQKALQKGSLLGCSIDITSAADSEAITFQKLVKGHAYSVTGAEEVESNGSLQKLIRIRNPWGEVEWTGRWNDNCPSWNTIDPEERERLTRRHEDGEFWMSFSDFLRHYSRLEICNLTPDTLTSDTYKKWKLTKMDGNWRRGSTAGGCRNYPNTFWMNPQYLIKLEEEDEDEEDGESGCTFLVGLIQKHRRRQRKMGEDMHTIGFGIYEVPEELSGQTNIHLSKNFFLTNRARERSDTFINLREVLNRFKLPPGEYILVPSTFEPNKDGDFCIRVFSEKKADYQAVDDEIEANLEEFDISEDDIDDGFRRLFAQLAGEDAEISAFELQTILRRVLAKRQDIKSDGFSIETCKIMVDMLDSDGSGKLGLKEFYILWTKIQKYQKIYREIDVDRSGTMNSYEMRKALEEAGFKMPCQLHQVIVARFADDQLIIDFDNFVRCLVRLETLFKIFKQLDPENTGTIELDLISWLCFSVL
UniProt P49662: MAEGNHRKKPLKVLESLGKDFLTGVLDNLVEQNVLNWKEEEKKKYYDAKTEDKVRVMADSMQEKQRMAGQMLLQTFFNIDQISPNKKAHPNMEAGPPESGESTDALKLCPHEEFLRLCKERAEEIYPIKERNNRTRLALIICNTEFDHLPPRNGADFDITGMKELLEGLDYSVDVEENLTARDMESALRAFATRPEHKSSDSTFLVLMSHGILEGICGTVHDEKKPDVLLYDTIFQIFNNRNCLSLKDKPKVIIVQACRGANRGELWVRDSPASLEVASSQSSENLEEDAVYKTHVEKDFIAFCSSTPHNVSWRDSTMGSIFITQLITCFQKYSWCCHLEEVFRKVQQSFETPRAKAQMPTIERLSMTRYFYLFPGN
UniProt P04040: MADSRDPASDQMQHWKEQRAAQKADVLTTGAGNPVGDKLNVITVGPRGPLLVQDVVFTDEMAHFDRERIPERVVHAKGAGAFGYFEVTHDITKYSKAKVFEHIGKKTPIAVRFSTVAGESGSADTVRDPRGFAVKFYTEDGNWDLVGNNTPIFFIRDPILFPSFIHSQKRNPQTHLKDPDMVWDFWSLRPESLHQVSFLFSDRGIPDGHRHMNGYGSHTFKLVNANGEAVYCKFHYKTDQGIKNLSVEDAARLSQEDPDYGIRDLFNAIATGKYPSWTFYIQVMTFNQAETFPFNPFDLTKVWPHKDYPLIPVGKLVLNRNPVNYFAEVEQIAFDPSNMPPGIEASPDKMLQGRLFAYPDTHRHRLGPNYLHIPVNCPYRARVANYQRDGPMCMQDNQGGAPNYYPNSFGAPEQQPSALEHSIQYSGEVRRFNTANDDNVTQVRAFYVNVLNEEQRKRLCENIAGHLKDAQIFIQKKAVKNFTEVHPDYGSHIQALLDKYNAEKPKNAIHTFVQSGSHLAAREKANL
UniProt P51946: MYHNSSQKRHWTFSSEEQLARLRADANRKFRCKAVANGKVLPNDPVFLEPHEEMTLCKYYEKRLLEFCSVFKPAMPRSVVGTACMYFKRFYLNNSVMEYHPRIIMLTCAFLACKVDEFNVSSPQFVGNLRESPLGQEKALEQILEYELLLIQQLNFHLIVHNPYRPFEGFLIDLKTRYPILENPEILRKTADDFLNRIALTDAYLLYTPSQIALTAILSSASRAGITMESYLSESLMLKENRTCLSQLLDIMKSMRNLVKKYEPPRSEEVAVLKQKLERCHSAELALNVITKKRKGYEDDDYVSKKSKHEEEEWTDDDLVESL
UniProt P40123, whole entry, looked up: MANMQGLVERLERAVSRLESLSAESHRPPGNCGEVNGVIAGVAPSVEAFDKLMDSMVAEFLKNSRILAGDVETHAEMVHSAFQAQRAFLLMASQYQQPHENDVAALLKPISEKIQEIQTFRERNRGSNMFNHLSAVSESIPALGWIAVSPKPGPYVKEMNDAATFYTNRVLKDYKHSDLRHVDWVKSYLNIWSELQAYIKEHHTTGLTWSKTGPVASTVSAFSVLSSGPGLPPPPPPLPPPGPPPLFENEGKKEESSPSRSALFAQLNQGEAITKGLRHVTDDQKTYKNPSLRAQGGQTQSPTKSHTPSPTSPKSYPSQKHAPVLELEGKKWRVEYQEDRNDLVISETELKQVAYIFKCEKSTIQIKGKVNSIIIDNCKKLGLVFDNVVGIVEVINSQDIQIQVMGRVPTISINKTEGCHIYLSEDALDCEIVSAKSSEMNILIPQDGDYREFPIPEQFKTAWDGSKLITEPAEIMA
UniProt Q8IX12: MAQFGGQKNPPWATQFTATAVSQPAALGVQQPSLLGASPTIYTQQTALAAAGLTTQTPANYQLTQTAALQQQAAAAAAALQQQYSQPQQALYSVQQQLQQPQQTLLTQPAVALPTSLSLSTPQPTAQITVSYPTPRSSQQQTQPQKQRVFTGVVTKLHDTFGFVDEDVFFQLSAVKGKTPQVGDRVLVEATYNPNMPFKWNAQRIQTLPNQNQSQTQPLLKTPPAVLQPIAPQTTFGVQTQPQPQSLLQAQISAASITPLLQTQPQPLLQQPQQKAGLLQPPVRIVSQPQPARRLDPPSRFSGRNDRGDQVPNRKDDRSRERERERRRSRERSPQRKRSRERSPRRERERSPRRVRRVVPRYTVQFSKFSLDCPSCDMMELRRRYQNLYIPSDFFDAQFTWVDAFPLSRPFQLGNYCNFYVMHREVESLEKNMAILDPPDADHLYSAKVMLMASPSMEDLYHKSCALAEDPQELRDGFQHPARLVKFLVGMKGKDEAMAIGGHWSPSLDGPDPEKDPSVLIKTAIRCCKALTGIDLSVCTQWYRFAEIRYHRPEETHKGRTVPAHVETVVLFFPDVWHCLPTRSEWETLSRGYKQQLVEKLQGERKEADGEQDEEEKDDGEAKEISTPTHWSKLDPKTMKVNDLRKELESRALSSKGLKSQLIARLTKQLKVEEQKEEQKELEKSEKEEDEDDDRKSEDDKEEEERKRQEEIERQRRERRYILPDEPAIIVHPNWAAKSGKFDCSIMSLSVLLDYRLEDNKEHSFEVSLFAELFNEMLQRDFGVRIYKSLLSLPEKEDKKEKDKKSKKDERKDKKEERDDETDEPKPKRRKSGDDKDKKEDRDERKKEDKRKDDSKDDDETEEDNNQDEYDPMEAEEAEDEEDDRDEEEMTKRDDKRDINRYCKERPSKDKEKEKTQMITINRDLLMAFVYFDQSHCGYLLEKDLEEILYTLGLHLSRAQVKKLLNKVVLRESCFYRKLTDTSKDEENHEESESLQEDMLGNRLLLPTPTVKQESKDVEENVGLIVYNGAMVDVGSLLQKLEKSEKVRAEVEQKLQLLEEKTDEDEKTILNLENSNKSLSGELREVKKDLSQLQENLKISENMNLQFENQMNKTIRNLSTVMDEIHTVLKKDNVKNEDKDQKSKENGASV
UniProt Q14781, whole entry: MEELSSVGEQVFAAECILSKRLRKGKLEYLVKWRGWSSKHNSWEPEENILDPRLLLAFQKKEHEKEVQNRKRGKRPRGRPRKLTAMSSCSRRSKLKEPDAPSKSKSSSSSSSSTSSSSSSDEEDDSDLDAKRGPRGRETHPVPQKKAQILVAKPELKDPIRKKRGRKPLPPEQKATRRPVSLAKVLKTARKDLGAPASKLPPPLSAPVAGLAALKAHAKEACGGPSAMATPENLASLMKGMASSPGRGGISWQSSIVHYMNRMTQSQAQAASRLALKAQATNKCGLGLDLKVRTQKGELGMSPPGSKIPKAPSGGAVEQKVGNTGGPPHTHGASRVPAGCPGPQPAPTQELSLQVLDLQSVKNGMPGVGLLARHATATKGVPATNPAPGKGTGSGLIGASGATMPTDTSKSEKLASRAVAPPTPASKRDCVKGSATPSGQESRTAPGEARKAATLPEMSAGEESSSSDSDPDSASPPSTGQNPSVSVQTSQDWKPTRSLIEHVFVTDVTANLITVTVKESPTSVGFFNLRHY

Compound: Cc1cc(ccc1-c1ccccc1)C(=O)N1CCCN(CC1)C(=O)CCl [compound 10]
Assay: probe-labelled cysteine peptide fold change vs DMSO (competition) (log2 fold change); higher = less target engagement (more negative = stronger competition)
Details: THP-1, incubation time: 4 h
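Note: competitive profiling in live THP-1 cells: cysteine peptides tagged with an iodoacetamide desthiobiotin (IA-DTB) probe, intensity after compound treatment relative to DMSO-treated cells.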

Row | Target | probe-labelled cysteine peptide fold change (10 µM) | probe-labelled cysteine peptide fold change (50 µM)
1 | CASP2_P42575_399_ACDMHVADMLVK (UniProt P42575) | -0.119 | -0.204
2 | CCT5_P48643_302_ETGANLAICQWGFDDEANHLLLQNNLPAVR (UniProt P48643) | -0.0363 | 0.089
3 | CAP1_Q01518_416_VQVMGKVPTISINKTDGCHAYLSK (UniProt Q01518) | -0.358 | -0.816
4 | CCAR2_Q8N163_644_PLSSGGEEEEKPRGEASEDLCEMALDPELLLLR (UniProt Q8N163) | 0.345 | 0.244
5 | CARD6_Q9BX69_292_DVLLCLNMDR (UniProt Q9BX69) | -0.0196 | -0.152
6 | CCT3_P49368_40_TCLGPK (UniProt P49368) | 0.151 | 0.131
7 | CASP10_Q92851_341+350_CNPAHADGDCFVFCILTHGR (UniProt Q92851) | -0.106 | 0.0374
8 | CAPN7_Q9Y6W3_120_ENVEDAIELYTEAVDLCLK (UniProt Q9Y6W3) | 0.131 | 0.358
9 | CAPN2_P17655_405_LEEEDEDEEDGESGCTFLVGLIQK (UniProt P17655) | -0.0227 | -0.0774
10 | CASP4_P49662_336+337_YSWCCHLEEVFR (UniProt P49662) | -0.236 | -0.828
11 | CAT_P04040_377_LGPNYLHIPVNCPYR (UniProt P04040) | -0.0544 | -0.117
12 | CCNH_P51946_57_VLPNDPVFLEPHEEMTLCK (UniProt P51946) | 0.162 | 0.455
13 | CAP2_P40123_430_TEGCHIYLSEDALDCEIVSAK (UniProt P40123) | -0.115 | 0.168
14 | CAPN15_O75808_101_GSCQEEAGPVR (UniProt O75808) | -0.35 | -0.316
15 | CCAR1_Q8IX12_539_ALTGIDLSVCTQWYR (UniProt Q8IX12) | -0.272 | 0.0717
16 | CCAR2_Q8N163_644_GEASEDLCEMALDPELLLLR (UniProt Q8N163) | 0.228 | 0.188
17 | CAST_P20810-2_228_YRELLAKPIGPDDAIDALSSDFTCGSPTAAGK (UniProt P20810) | -0.219 | -0.995
18 | CCDC77_Q9BR77_164_IQNLLALVGTDAGEVTYFCK (UniProt Q9BR77) | 0.0104 | -0.0631
19 | CBX2_Q14781_89_KLTAMSSCSR (UniProt Q14781) | -0.0937 | -0.231
